PMC11467429
Results are given in words; binding and its absence hold for the method and conditions named. Binding calls can cover weak binding; strength is not graded here.

Chains of the proteins cited; added tags and fusions are not shown. Lines headed by an entry give the natural chain unless they say otherwise; changes in a name come on top.
UniProt Q7Z419: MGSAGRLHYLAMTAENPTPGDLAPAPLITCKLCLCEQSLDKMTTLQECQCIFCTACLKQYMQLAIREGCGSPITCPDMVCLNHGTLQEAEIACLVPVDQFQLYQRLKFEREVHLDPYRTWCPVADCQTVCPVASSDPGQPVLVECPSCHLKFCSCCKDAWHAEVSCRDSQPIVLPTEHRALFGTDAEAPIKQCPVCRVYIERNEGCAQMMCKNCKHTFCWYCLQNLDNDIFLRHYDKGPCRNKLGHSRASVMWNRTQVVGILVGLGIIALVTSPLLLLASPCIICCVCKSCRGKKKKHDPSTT
UniProt Q9BYX4: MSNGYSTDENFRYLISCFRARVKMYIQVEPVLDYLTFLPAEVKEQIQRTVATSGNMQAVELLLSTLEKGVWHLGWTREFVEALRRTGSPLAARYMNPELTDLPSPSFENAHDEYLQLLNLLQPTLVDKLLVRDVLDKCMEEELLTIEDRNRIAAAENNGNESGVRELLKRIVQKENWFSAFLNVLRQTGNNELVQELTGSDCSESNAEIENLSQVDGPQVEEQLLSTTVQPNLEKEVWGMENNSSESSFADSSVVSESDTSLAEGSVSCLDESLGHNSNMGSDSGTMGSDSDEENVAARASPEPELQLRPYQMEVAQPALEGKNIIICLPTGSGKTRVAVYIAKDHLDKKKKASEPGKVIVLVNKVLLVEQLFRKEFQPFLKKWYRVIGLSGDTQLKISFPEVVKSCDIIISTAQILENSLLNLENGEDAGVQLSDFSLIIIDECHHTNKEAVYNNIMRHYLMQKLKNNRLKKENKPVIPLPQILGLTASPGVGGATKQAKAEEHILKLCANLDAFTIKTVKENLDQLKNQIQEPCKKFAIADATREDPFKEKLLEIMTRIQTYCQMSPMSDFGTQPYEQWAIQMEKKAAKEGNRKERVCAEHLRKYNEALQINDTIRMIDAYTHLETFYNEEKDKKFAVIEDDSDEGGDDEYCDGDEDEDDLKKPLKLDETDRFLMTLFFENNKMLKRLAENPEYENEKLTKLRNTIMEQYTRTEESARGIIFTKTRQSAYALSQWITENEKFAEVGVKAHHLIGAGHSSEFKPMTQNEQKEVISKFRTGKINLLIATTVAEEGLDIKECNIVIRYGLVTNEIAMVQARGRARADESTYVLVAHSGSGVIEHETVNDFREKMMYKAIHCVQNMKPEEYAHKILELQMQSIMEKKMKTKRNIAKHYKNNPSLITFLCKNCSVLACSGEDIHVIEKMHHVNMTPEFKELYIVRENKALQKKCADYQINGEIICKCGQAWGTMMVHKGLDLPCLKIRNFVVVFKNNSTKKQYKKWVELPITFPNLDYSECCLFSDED

Target: GST-RNF144B (UniProt Q7Z419)
Test: pull-down; GST or GST-RNF144B (12 μg) and MDA5-Flag proteins incubated with glutathione agarose overnight at 4 °C, washed three times with PBS, immunoblot; both purified

- binding: binds
Substance: Flag-tagged MDA5 (from UniProt Q9BYX4 1-1025)
